Laboratory results reported in the supplement of paper PMC12823440, “Inhibitors supercharge kinase turnover through native proteolytic circuits” (Nature, 2025).
Counter-ions that a name gives are not always drawn. Some of the results follow. Hit calls seldom repeat between salt and free forms of one compound.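 Kinases were expressed as nanoluciferase fusions in K562 cells and luminescence was read every 4 h between 2 and 18 h as percent of control, DMSO set to 100% and a positive control to 0%. A time point counts as decreased when the signal drops significantly (2 sigma). The hit call is the authors' own, does not follow from the count of time points alone, and its rule is not shown.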

The chains behind the UniProt entries cited, without tags or fusion partners. Where a name states a change or a piece, a line headed by the entry shows the natural chain unless it says otherwise.
UniProt P31749: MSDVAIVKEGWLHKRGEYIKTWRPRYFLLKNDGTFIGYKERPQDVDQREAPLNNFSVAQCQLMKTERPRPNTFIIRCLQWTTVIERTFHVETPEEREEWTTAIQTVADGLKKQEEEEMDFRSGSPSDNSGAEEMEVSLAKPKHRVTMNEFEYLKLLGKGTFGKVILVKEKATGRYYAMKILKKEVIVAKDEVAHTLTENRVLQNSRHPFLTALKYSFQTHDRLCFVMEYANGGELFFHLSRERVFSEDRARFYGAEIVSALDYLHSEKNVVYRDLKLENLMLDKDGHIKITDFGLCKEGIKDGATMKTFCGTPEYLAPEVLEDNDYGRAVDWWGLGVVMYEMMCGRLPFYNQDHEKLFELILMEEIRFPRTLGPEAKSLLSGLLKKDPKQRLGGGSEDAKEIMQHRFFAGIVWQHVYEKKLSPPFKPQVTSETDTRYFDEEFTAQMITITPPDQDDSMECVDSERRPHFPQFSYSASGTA
UniProt P10398: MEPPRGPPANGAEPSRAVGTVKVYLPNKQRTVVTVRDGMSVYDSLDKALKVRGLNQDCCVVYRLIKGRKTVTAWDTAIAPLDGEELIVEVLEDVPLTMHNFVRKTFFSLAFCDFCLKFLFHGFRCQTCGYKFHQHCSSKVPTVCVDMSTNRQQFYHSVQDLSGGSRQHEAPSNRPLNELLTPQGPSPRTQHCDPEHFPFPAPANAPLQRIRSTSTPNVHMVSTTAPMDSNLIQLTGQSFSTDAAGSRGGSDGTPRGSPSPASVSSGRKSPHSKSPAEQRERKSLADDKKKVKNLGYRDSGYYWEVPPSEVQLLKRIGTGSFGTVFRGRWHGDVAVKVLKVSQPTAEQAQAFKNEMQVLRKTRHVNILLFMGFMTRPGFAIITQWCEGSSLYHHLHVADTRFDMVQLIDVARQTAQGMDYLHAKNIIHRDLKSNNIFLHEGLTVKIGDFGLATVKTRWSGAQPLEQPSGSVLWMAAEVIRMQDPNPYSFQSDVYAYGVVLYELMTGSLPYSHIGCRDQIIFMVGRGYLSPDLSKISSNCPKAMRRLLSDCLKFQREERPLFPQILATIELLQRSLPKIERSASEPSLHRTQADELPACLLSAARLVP
UniProt O14965: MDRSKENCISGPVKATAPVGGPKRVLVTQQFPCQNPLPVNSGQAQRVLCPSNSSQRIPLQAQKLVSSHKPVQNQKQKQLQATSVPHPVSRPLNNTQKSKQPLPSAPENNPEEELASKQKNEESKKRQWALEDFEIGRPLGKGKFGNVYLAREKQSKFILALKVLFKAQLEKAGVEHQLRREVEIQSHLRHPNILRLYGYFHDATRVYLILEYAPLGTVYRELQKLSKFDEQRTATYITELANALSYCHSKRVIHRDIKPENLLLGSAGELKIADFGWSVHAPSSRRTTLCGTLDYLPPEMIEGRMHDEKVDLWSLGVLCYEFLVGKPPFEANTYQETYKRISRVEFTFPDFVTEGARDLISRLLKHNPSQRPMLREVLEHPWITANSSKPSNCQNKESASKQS
UniProt Q96GD4, whole entry: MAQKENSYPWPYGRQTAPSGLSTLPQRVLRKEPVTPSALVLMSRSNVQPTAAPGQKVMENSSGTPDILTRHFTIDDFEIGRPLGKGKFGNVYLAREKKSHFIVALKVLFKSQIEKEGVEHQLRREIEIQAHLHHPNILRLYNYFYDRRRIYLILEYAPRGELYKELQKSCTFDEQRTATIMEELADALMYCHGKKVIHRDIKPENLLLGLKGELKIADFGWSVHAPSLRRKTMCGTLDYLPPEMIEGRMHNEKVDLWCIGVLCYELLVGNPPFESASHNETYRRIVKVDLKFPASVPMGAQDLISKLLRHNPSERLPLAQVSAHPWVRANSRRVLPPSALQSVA
UniProt P51451: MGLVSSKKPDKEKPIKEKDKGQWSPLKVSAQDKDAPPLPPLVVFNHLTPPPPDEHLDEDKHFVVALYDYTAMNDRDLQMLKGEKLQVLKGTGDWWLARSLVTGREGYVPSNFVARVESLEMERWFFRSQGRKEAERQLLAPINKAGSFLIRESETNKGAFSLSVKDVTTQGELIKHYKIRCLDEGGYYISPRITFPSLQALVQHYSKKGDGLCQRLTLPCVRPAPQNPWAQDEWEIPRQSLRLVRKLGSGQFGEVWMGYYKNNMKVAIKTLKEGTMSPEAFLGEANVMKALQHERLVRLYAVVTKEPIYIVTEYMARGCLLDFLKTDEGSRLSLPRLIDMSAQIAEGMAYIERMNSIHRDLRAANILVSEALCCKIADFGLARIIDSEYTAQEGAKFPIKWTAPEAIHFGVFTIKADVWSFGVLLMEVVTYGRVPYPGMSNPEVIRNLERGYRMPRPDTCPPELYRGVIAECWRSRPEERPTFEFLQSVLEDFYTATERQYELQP
UniProt P51813: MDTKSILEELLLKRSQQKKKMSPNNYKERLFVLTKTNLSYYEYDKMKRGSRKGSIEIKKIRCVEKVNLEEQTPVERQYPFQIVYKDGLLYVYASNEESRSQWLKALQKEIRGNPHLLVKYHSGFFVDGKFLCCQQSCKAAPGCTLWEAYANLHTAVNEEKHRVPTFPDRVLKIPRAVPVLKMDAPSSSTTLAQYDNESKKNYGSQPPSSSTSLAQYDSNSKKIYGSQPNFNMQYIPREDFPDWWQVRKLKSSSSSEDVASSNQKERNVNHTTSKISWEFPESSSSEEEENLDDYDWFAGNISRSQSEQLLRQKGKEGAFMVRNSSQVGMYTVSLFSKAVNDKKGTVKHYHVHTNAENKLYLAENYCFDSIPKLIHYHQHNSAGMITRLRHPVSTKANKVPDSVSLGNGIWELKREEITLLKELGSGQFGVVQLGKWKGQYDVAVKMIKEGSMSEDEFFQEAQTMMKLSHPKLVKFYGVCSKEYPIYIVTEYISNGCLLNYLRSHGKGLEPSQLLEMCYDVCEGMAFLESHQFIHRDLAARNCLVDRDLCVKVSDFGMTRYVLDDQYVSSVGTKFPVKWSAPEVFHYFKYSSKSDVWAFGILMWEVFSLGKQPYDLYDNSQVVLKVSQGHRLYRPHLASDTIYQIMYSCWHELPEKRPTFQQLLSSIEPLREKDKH
UniProt P15056, whole entry, looked up: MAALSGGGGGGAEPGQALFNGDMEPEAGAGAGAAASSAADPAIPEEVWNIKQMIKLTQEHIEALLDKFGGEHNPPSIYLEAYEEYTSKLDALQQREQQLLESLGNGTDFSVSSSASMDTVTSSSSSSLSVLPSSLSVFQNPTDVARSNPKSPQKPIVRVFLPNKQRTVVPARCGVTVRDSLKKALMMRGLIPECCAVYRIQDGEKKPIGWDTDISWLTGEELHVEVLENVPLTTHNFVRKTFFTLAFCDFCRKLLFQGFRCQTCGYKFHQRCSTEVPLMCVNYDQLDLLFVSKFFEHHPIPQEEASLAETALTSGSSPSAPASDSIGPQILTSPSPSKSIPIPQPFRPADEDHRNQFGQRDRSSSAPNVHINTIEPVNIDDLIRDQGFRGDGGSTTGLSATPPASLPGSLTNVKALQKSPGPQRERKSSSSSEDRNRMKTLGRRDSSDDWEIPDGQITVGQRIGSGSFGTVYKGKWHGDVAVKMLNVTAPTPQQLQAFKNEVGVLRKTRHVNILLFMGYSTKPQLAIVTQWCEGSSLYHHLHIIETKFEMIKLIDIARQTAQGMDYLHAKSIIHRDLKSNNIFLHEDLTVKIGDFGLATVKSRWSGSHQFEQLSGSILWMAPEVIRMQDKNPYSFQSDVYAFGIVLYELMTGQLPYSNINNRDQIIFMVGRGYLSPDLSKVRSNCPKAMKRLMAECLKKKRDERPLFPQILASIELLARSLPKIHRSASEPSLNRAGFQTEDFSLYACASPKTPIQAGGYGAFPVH
UniProt Q06187: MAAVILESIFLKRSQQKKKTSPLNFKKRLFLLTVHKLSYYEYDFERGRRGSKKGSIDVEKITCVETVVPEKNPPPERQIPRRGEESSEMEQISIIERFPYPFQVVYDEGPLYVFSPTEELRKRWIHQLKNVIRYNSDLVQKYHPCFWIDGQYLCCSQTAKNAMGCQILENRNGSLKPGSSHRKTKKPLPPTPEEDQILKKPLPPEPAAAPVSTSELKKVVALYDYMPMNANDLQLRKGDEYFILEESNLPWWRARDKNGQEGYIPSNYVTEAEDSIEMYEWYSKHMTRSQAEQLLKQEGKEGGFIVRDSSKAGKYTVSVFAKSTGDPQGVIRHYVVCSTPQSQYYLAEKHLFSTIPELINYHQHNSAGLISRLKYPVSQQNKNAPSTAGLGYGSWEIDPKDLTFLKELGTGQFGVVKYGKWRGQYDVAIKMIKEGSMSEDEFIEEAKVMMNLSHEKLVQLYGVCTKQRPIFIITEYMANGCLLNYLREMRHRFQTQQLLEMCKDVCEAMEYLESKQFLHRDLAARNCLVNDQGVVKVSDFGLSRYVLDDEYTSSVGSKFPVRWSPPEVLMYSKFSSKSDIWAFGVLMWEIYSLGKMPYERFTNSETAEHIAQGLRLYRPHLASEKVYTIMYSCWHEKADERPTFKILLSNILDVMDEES
UniProt Q9UQM7, whole entry: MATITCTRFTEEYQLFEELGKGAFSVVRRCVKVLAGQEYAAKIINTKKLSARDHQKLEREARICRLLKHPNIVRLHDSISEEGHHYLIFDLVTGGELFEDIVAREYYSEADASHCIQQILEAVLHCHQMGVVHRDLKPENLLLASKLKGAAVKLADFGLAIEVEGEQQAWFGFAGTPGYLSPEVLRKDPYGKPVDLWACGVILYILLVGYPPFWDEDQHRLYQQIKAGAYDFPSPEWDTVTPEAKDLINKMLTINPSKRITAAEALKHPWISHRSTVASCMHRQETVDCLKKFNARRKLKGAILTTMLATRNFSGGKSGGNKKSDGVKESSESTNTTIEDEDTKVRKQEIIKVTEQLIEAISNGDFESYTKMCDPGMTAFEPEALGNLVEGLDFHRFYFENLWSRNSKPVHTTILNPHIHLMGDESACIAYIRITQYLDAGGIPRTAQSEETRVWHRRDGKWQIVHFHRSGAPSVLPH
UniProt Q13555: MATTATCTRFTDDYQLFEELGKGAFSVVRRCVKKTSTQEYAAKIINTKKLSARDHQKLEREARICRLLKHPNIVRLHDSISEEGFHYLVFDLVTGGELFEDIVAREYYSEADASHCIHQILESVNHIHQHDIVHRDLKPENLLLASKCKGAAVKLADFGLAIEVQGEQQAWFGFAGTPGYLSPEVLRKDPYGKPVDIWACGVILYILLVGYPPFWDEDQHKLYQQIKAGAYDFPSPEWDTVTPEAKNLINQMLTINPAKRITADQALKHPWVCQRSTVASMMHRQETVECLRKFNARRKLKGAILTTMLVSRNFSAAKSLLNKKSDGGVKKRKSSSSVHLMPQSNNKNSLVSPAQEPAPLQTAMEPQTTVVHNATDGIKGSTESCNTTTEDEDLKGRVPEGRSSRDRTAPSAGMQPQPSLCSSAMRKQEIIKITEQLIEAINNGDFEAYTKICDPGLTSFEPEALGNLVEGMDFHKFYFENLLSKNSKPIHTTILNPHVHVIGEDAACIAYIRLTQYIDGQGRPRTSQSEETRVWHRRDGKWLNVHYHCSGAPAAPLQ
UniProt Q15131: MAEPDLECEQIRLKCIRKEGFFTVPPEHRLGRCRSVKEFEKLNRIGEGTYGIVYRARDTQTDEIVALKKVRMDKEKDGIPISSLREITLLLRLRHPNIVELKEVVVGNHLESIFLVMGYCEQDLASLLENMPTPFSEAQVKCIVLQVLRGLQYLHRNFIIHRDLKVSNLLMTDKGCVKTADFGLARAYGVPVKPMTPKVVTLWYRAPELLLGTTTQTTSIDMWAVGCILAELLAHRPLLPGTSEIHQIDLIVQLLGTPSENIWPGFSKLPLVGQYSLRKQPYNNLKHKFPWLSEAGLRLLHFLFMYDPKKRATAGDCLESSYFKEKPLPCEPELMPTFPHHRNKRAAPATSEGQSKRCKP
UniProt Q00526: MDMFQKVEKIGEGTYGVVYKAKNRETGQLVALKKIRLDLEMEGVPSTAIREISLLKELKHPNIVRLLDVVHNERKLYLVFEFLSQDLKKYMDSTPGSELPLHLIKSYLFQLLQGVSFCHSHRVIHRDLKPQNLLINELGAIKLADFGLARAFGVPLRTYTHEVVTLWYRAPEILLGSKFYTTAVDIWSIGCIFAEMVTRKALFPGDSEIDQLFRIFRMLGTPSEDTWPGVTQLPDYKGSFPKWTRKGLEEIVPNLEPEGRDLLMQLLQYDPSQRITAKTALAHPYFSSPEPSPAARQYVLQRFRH
UniProt Q00534, whole entry: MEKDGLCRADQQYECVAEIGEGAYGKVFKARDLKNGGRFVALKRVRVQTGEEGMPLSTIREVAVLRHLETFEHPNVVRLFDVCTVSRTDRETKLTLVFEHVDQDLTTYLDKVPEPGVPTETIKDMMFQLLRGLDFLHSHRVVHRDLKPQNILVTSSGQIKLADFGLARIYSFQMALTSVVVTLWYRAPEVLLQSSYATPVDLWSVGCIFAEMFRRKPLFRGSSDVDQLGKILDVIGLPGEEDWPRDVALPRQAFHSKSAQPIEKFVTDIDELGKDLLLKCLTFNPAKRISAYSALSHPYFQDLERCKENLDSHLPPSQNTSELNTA

What was measured:
Test in all cases: kinase-Nluc reporter destabilization hit call (1 = scored as downregulated) (binary); higher = compound decreases kinase abundance
Conditions in all cases: K562; 2-18 h
[1] = target: ABL1 (UniProt P00519)
[2] = target: AKT1 (UniProt P31749)
[3] = target: ALK (UniProt Q9UM73)
[4] = target: ARAF (UniProt P10398)
[5] = target: AURKA (UniProt O14965)
[6] = target: AURKB (UniProt Q96GD4)
[7] = target: AURKC (UniProt Q9UQB9)
[8] = target: BLK (UniProt P51451)
[9] = target: BMX (UniProt P51813)
[10] = target: BRAF (UniProt P15056)
[11] = system: BRAF_V600E
[12] = target: BTK (UniProt Q06187)
[13] = target: CAMK2A (UniProt Q9UQM7)
[14] = target: CAMK2G (UniProt Q13555)
[15] = target: CDK10 (UniProt Q15131)
[16] = target: CDK2 (UniProt P24941)
[17] = target: CDK3 (UniProt Q00526)
[18] = target: CDK4 (UniProt P11802)
[19] = target: CDK5 (UniProt Q00535)
[20] = target: CDK6 (UniProt Q00534)

| SMILES | kinase-Nluc reporter destabilization hit call [1] | kinase-Nluc reporter destabilization hit call [2] | kinase-Nluc reporter destabilization hit call [3] | kinase-Nluc reporter destabilization hit call [4] | kinase-Nluc reporter destabilization hit call [5] | kinase-Nluc reporter destabilization hit call [6] | kinase-Nluc reporter destabilization hit call [7] | kinase-Nluc reporter destabilization hit call [8] | kinase-Nluc reporter destabilization hit call [9] | kinase-Nluc reporter destabilization hit call [10] | kinase-Nluc reporter destabilization hit call [11] | kinase-Nluc reporter destabilization hit call [12] | kinase-Nluc reporter destabilization hit call [13] | kinase-Nluc reporter destabilization hit call [14] | kinase-Nluc reporter destabilization hit call [15] | kinase-Nluc reporter destabilization hit call [16] | kinase-Nluc reporter destabilization hit call [17] | kinase-Nluc reporter destabilization hit call [18] | kinase-Nluc reporter destabilization hit call [19] | kinase-Nluc reporter destabilization hit call [20] |
| --- | --- | --- | --- | --- | --- | --- | --- | --- | --- | --- | --- | --- | --- | --- | --- | --- | --- | --- | --- | --- |
| CCN1/C(=C/C(C)=O)Sc2ccc(OC)cc21 (10 µM) | inactive: 0 | inactive: 0 | inactive: 0 | inactive: 0 | inactive: 0 | inactive: 0 | inactive: 0 | inactive: 0 | inactive: 0 | inactive: 0 | active: 1 | inactive: 0 | inactive: 0 | inactive: 0 | inactive: 0 | inactive: 0 | inactive: 0 | inactive: 0 | inactive: 0 | inactive: 0 |
| O=C(O)CCc1ccc(NCc2cccc(Oc3ccccc3)c2)cc1 (10 µM) | inactive: 0 | inactive: 0 | inactive: 0 | inactive: 0 | inactive: 0 | inactive: 0 | inactive: 0 | inactive: 0 | inactive: 0 | inactive: 0 | inactive: 0 | inactive: 0 | inactive: 0 | inactive: 0 | inactive: 0 | inactive: 0 | inactive: 0 | inactive: 0 | inactive: 0 | inactive: 0 |
| CC[C@H](Nc1ncnc2[nH]cnc12)c1oc2ccccc2c(=O)c1-c1cccc(F)c1 [Tenalisib] (10 µM) | inactive: 0 | inactive: 0 | inactive: 0 | inactive: 0 | inactive: 0 | inactive: 0 | inactive: 0 | inactive: 0 | inactive: 0 | inactive: 0 | inactive: 0 | inactive: 0 | inactive: 0 | inactive: 0 | inactive: 0 | inactive: 0 | inactive: 0 | inactive: 0 | inactive: 0 | inactive: 0 |
| N=C(N)NC(=N)NCCc1ccccc1 [Phenformin (hydrochloride)] (10 µM) | inactive: 0 | inactive: 0 | inactive: 0 | inactive: 0 | inactive: 0 | inactive: 0 | inactive: 0 | inactive: 0 | inactive: 0 | inactive: 0 | inactive: 0 | inactive: 0 | inactive: 0 | inactive: 0 | inactive: 0 | inactive: 0 | inactive: 0 | inactive: 0 | inactive: 0 | inactive: 0 |
| O=C(c1ccc(Nc2nccc(-c3cc4ccccc4s3)n2)cc1)N1CCC(N2CCCC2)CC1 (2.5 µM) | inactive: 0 | inactive: 0 | inactive: 0 | inactive: 0 | inactive: 0 | inactive: 0 | inactive: 0 | inactive: 0 | inactive: 0 | inactive: 0 | inactive: 0 | inactive: 0 | inactive: 0 | inactive: 0 | inactive: 0 | inactive: 0 | inactive: 0 | inactive: 0 | inactive: 0 | inactive: 0 |
| CNC(=O)c1cc(Oc2ccc3nc(N[C@@H]4CCCC[C@H]4O)sc3c2)ccn1 (10 µM) | inactive: 0 | inactive: 0 | inactive: 0 | inactive: 0 | inactive: 0 | inactive: 0 | inactive: 0 | inactive: 0 | inactive: 0 | inactive: 0 | inactive: 0 | inactive: 0 | inactive: 0 | inactive: 0 | inactive: 0 | inactive: 0 | inactive: 0 | inactive: 0 | inactive: 0 | inactive: 0 |
| CCc1cccc(CC)c1NC(=O)c1nn(C)c2c1CCc1cnc(Nc3ccc(C(=O)NC4CCN(C)CC4)cc3OC(F)(F)F)nc1-2 (2 µM) | inactive: 0 | inactive: 0 | inactive: 0 | inactive: 0 | inactive: 0 | inactive: 0 | inactive: 0 | inactive: 0 | inactive: 0 | inactive: 0 | inactive: 0 | inactive: 0 | inactive: 0 | inactive: 0 | inactive: 0 | inactive: 0 | inactive: 0 | inactive: 0 | inactive: 0 | inactive: 0 |
| COc1ccc2c(=O)c(-c3ccccc3)coc2c1 [7-Methoxyisoflavone] (10 µM) | inactive: 0 | inactive: 0 | inactive: 0 | inactive: 0 | active: 1 | inactive: 0 | inactive: 0 | inactive: 0 | inactive: 0 | inactive: 0 | inactive: 0 | inactive: 0 | inactive: 0 | inactive: 0 | inactive: 0 | inactive: 0 | inactive: 0 | inactive: 0 | inactive: 0 | inactive: 0 |
| c1ccc(-c2oc3ncnc(NC[C@@H]4CCCO4)c3c2-c2ccccc2)cc1 (2.5 µM) | inactive: 0 | inactive: 0 | inactive: 0 | inactive: 0 | inactive: 0 | inactive: 0 | inactive: 0 | inactive: 0 | inactive: 0 | inactive: 0 | inactive: 0 | inactive: 0 | inactive: 0 | inactive: 0 | inactive: 0 | inactive: 0 | inactive: 0 | inactive: 0 | inactive: 0 | inactive: 0 |
| Cc1cc(C(C)Nc2ccccc2)c2nc(N3CCOCC3)cc(=O)n2c1 (stereo not given) (10 µM) | inactive: 0 | inactive: 0 | inactive: 0 | inactive: 0 | inactive: 0 | inactive: 0 | inactive: 0 | inactive: 0 | inactive: 0 | inactive: 0 | inactive: 0 | inactive: 0 | inactive: 0 | inactive: 0 | inactive: 0 | inactive: 0 | inactive: 0 | inactive: 0 | inactive: 0 | inactive: 0 |
| CN(C)Cc1cccc(N=C(c2ccccc2)c2c(O)[nH]c3cc(C(=O)N(C)C)ccc23)c1 (10 µM) | inactive: 0 | inactive: 0 | inactive: 0 | inactive: 0 | inactive: 0 | inactive: 0 | inactive: 0 | inactive: 0 | inactive: 0 | inactive: 0 | inactive: 0 | inactive: 0 | inactive: 0 | inactive: 0 | inactive: 0 | inactive: 0 | inactive: 0 | inactive: 0 | inactive: 0 | inactive: 0 |
| CC(C)c1cnn2c(NCc3ccccc3-n3cccn3)nc(OC3CCCNC3)nc12 (stereo not given) (2.5 µM) | inactive: 0 | inactive: 0 | inactive: 0 | inactive: 0 | inactive: 0 | inactive: 0 | inactive: 0 | inactive: 0 | inactive: 0 | inactive: 0 | inactive: 0 | inactive: 0 | inactive: 0 | inactive: 0 | inactive: 0 | inactive: 0 | inactive: 0 | inactive: 0 | inactive: 0 | inactive: 0 |
| O=C(CO)N1CCC(c2n[nH]c(-c3ccc(Cl)cc3)c2-c2ccncn2)CC1 (10 µM) | inactive: 0 | inactive: 0 | inactive: 0 | inactive: 0 | inactive: 0 | inactive: 0 | inactive: 0 | inactive: 0 | inactive: 0 | inactive: 0 | inactive: 0 | inactive: 0 | inactive: 0 | inactive: 0 | inactive: 0 | inactive: 0 | inactive: 0 | inactive: 0 | inactive: 0 | inactive: 0 |
| CCc1ccc(C(=O)COc2ccc(CC3SC(=O)NC3=O)cc2)nc1 (stereo not given) (10 µM) | inactive: 0 | inactive: 0 | inactive: 0 | inactive: 0 | inactive: 0 | inactive: 0 | inactive: 0 | inactive: 0 | inactive: 0 | inactive: 0 | inactive: 0 | inactive: 0 | inactive: 0 | inactive: 0 | inactive: 0 | inactive: 0 | inactive: 0 | inactive: 0 | inactive: 0 | inactive: 0 |
| O=C(NOCCO)c1ccc2cncn2c1Nc1ccc(I)cc1F (10 µM) | inactive: 0 | inactive: 0 | inactive: 0 | inactive: 0 | inactive: 0 | inactive: 0 | inactive: 0 | inactive: 0 | inactive: 0 | inactive: 0 | inactive: 0 | inactive: 0 | inactive: 0 | inactive: 0 | inactive: 0 | inactive: 0 | inactive: 0 | inactive: 0 | inactive: 0 | inactive: 0 |
| Nc1nc2cc(-c3ccc4ncc(C(=O)N5CCOCC5)n4c3)ccc2o1 [Serabelisib] (10 µM) | inactive: 0 | inactive: 0 | inactive: 0 | inactive: 0 | inactive: 0 | inactive: 0 | inactive: 0 | inactive: 0 | inactive: 0 | inactive: 0 | inactive: 0 | inactive: 0 | inactive: 0 | inactive: 0 | inactive: 0 | inactive: 0 | inactive: 0 | inactive: 0 | inactive: 0 | inactive: 0 |
| Cn1cc(-c2cc3c(N4CCN(c5ncc([C@@](C)(N)c6ccc(F)cc6)cn5)CC4)ncnn3c2)cn1 [Avapritinib] (2.5 µM) | inactive: 0 | inactive: 0 | inactive: 0 | inactive: 0 | inactive: 0 | inactive: 0 | inactive: 0 | inactive: 0 | inactive: 0 | inactive: 0 | inactive: 0 | inactive: 0 | inactive: 0 | inactive: 0 | inactive: 0 | inactive: 0 | inactive: 0 | inactive: 0 | inactive: 0 | inactive: 0 |

Some of the entries so far, as tab-separated lines:
SMILES	kinase-Nluc reporter destabilization hit call [1]	kinase-Nluc reporter destabilization hit call [2]	kinase-Nluc reporter destabilization hit call [3]	kinase-Nluc reporter destabilization hit call [4]	kinase-Nluc reporter destabilization hit call [5]	kinase-Nluc reporter destabilization hit call [6]	kinase-Nluc reporter destabilization hit call [7]	kinase-Nluc reporter destabilization hit call [8]	kinase-Nluc reporter destabilization hit call [9]	kinase-Nluc reporter destabilization hit call [10]	kinase-Nluc reporter destabilization hit call [11]	kinase-Nluc reporter destabilization hit call [12]	kinase-Nluc reporter destabilization hit call [13]	kinase-Nluc reporter destabilization hit call [14]	kinase-Nluc reporter destabilization hit call [15]	kinase-Nluc reporter destabilization hit call [16]	kinase-Nluc reporter destabilization hit call [17]	kinase-Nluc reporter destabilization hit call [18]	kinase-Nluc reporter destabilization hit call [19]	kinase-Nluc reporter destabilization hit call [20]
O=C(O)CCc1ccc(NCc2cccc(Oc3ccccc3)c2)cc1 (10 µM)	inactive: 0	inactive: 0	inactive: 0	inactive: 0	inactive: 0	inactive: 0	inactive: 0	inactive: 0	inactive: 0	inactive: 0	inactive: 0	inactive: 0	inactive: 0	inactive: 0	inactive: 0	inactive: 0	inactive: 0	inactive: 0	inactive: 0	inactive: 0
CC[C@H](Nc1ncnc2[nH]cnc12)c1oc2ccccc2c(=O)c1-c1cccc(F)c1 [Tenalisib] (10 µM)	inactive: 0	inactive: 0	inactive: 0	inactive: 0	inactive: 0	inactive: 0	inactive: 0	inactive: 0	inactive: 0	inactive: 0	inactive: 0	inactive: 0	inactive: 0	inactive: 0	inactive: 0	inactive: 0	inactive: 0	inactive: 0	inactive: 0	inactive: 0
O=C(NOCCO)c1ccc2cncn2c1Nc1ccc(I)cc1F (10 µM)	inactive: 0	inactive: 0	inactive: 0	inactive: 0	inactive: 0	inactive: 0	inactive: 0	inactive: 0	inactive: 0	inactive: 0	inactive: 0	inactive: 0	inactive: 0	inactive: 0	inactive: 0	inactive: 0	inactive: 0	inactive: 0	inactive: 0	inactive: 0
